# Measurements from paper doi:10.1101/777771.
# Results are given in words; binding and its absence hold for the method and conditions named. Binding seen in cells or lysates may run through a third protein. Some binding calls cover weakened binding; strength is not graded here.
# T1: JUNB (human (endogenous in A375)), P17275
# T1 chain: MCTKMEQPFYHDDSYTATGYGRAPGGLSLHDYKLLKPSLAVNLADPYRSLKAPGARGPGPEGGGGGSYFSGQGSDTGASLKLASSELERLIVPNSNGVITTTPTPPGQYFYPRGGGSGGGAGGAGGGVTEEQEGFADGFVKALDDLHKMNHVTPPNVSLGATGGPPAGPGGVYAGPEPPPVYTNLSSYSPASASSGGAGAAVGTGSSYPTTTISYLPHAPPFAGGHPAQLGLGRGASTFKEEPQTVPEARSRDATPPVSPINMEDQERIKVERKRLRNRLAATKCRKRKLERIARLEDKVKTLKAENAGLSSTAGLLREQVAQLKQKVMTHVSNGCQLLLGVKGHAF
# Target: T1, JUNB (human (endogenous in A375)), …
# Test: co-IP
# Settings: remark: other sources report otherwise
binder,measurement,value
"FOSL1, P15407 1-271 (protein) MFRDFGEPGPSSGNGGGYGGPAQPPAAAQAAQQKFHLVPSINTMSGSQELQWMVQPHFLGPSSYPRPLTYPQYSPPQPRPGVIRALGPPPGVRRRPCEQISPEEEERRRVRRERNKLAAAKCRNRRKELTDFLQAETDKLEDEKSGLQREIEELQKQKERLELVLEAHRPICKIPEGAKEGDTGSTSGTSSPPAPCRPVPCISLSPGPVLEPEALHTPTLMTTPSLTPFTPSLVFTYPSTPEPCASAHRKSSSSSGDPSSDPLGSPTLLAL",binding,binds
